Laboratory results taken from US20160008297A1, “COMPOUNDS FOR PREVENTING, REDUCING AND/OR ALLEVIATING ITCHY SKIN CONDITION(S)” (B.R.A.I.N. Biotechnology Research And Information Network AG, priority 2012, published 2016).
At least one peptide structure holds a part that was inferred or is arguable (an end, a ring closure or a residue). No end group written: not given here.

Biological target: T1, PAR-2 (Homo sapiens, UniProt P55085)
T1 construct: Human embryonic kidney 293 cells (HEK293) endogenously expressing PAR-2; endogenous in cells; host or cells: HEK293
T1 sequence (P55085 26-397): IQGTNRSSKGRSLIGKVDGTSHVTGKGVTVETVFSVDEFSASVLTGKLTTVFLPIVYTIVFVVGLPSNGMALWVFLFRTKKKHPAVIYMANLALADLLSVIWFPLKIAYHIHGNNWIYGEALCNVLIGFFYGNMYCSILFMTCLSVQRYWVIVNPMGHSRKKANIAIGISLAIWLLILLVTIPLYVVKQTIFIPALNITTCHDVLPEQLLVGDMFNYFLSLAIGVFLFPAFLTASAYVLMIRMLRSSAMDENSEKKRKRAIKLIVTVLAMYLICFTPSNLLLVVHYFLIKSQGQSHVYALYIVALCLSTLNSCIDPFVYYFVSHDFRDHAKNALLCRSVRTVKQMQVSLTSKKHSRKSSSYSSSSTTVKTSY
Assay: Cell-based calcium assay (Fluo-4 AM) for PAR-2 antagonists, SLIGRL-evoked signal
Settings: HEK293 endogenously expressing PAR-2, Fluo-4 calcium detection; read-out: EC50 of PAR-2 activating peptide (agonistic stimulus)
Protocol: Cell-based calcium assay for the identification of PAR-2 antagonists based on fluorescent dye Fluo4-AM
Functional modulation of PAR-2 by the tested compounds was measured and quantified using the calcium sensitive fluorescent probe Fluo-4 AM on a fluorescence microplate reader. Activation of PAR-2 by an agonist (SLIGRL) led to an increase in the intracellular calcium concentration and thus an increase in fluorescence intensity. […]
Cells were seeded onto 96-well clear-bottom black-walled assay plates at a density of 45,000 cells per well in 100 μl of cell culture medium. Intracellular calcium increase in the living cells due to receptor activation was monitored 24 h later using the calcium sensitive fluorescent probe Fluo-4 AM on a fluorescence microplate reader (FlexStation® system, Molecular Devices). […]
Medium was replaced with 150 μl KH buffer supplemented with sulfinpyrazone (250 μM). Subsequently, 50 μl KH buffer supplemented with the screening compounds (final concentration of 10 μM under measurement conditions) or control substances were added and the cells were incubated for 10 min. under assay conditions in the microplate reader. Changes in fluorescence were recorded at 37° C. after addition of 50 μl KH buffer supplemented with the PAR-2 peptide agonist SLIGRL (final concentration of 2 μM under measurement conditions). […]

## SLIGRL [SLIGRL, reference compound]
  EC50: ~600 nM
